# Data reported in PubChem BioAssay AID624297 (National Center for Advancing Translational Sciences (NCATS), 2012).
# Several values for one entry are separate records, joined by “and”; a condition that tells them apart may be missing. Equal values may be shown once. In all, about 340,000 compounds went through this assay and about 6,200 (1.8%) were called active. Inconclusive means that the source gave no clear call. Such entries were picked first, then a sample of the others. Calls follow the shape of the dose curve; as a rule, active = well fitted activation curve with a large enough effect; inconclusive = small, poorly fitted or top-dose-only effect; inactive = no such curve, though single readings can be large or run the other way. Potencies beside an inconclusive call are fits to weak or partial responses and may not hold up.
# Experiment: A quantitative high throughput screen for small molecules that induce DNA re-replication in SW480 colon adenocarcinoma cells. Also: nearly all actives have a fitted effect of over 55% in size. As to re-replication activation: % of control where 0% means no effect.
# Conditions: Hoechst DNA content imaging, 48 h; re-replication activation: at 46.1 µM (top of the series) unless noted
# Summary of the method: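 Cells (250 per well) received 23 nL compound or DMSO by pin tool and were kept 48 hr at 37 C, 5% CO2. Nuclei were then stained with Hoechst for 40 min and scanned for DNA content.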
# Potency is read from the fitted curve at half-maximal effect.
SMILES,Potency,re-replication activation
c1ccc(-c2c3ccccc3nc3[nH]c4ccccc4c23)cc1,active: 11.6 µM,
COc1cccc(CNC(=O)Cc2ccc(-c3ccccc3)cc2)c1,"inconclusive: 18.4 µM [activator, single point]",
CSc1cc(-c2ccccc2)n(Cc2ccccc2Cl)c(=O)c1C#N,active: 6.51 µM,
CC1(C)CC(=O)c2c(oc3cc(O)c(O)cc23)C1,"inconclusive: 10.3 µM [activator, partial curve, poor fit]",
CCNC(=O)Nc1ccc(OC)cc1OC,"inconclusive: 0.0052 µM [activator, full curve, poor fit]",
O=C(O)COc1ccccc1/C=N/NC(=O)CSc1nnc(SCc2ccccc2)s1,,inactive: 1.18%
Cc1ccc(C(=O)c2ccccc2C(=O)OCC(=O)N2CC(C)CC(C)C2)cc1 (stereo unspecified),,inactive: 0.628%
O=C(CSc1nnc(SCC(=O)c2ccco2)s1)c1ccco1,,inactive: -0.346%
COc1cc(/C=C/C=C2/CC/C(=C/C=C/c3ccc(O)c(OC)c3)C2=O)ccc1O,"inconclusive: 29.1 µM [activator, single point]",
O=C(Nc1ccc(Cl)cn1)c1cccc2c(Br)cccc12,"inconclusive: 18.4 µM [activator, single point]",
COC(=O)c1sc(-c2cccs2)cc1NC(=O)/C=C/C(=O)O,"inconclusive: 29.1 µM [activator, single point]",
Cc1ccc(C(C(=O)NC2CCCCC2)N(CCCN2CCOCC2)C(=O)c2snc(C(N)=O)c2N)cc1 (stereo unspecified),,inactive: -5.35%
CCOc1ccc(OCCCC(=O)ON=C(N)c2ccccc2C)cc1,,inactive: -1.64%
CNc1cc(CSC)nc(SCc2ccc(Cl)c(Cl)c2)n1,"inconclusive: 29.1 µM [activator, single point]",
CN(C)CC(=O)Nc1cc(C(F)(F)F)ccc1Cl,"inconclusive: 32.6 µM [activator, single point]",
CCC(=O)C1CCCN(C(=O)c2cccc(OC3CCN(S(C)(=O)=O)CC3)c2)C1 (stereo unspecified),,inactive: 4.37%
CCn1nc(C)c(C(=O)Nc2cc(Oc3cc(C)cc(C)c3)cc([N+](=O)[O-])c2)c1C,"inconclusive: 29.1 µM [activator, single point]",
COc1ccc(-c2cccc(NS(=O)(=O)c3cc([N+](=O)[O-])c(C)c([N+](=O)[O-])c3)c2)nn1,,inactive: 2.93%
CCOC1OC(=O)C(Cl)=C1Nc1ccc(C)cc1 (stereo unspecified),"inconclusive: 1.03 µM [activator, partial curve, poor fit]",
CCN(C(=O)/C=C/c1ccc(OC)cc1)C1CCCCC1,,inactive: -3.95%
COCC(=O)N(Cc1nc2ccccc2c(=O)[nH]1)Cc1cccs1,,inactive: 1.04%
COc1ccc(C(=O)CCN2CCC(C)CC2)cc1,"inconclusive: 29.1 µM [activator, single point]",
O=C(Nc1nc(-c2ccc(Cl)s2)cs1)c1ccco1,,inactive: 6.71%
COCC(C)NC(=O)c1ccccc1OC(C)=O (stereo unspecified),,inactive: -6.03%

SMILES,Potency,re-replication activation
COC(=O)c1ccc(COc2ccccc2/C=N/NC(=O)c2cccnc2)cc1,"inconclusive: 20.6 µM [activator, partial curve, poor fit]",
O=C(COC(=O)c1ccc(O)cc1)Nc1cc(C(F)(F)F)ccc1N1CCOCC1,,inactive: -5.84%
Cc1cccc2cc(CN(CCN(C)C)C(=S)NCc3ccco3)c(=O)[nH]c12,,inactive: 10.8%
COc1ccccc1NC(=S)NNC(=O)c1nn(C)c(C)c1Cl,,inactive: 16.4%
CCc1ccccc1NC(=O)Cn1nc(C)n2cccc2c1=O,"inconclusive: 18.4 µM [activator, single point]",
COc1ccc(C(Cl)=C(c2ccc(OC)cc2)c2ccc(OC)cc2)cc1,"inconclusive: 35.5 µM [activator, single point] and inconclusive: 31.2 µM [activator, single point]",
Cc1oncc1C(=O)Nc1ccc(C(F)(F)F)cc1,"inconclusive: 0.58 µM [activator, partial curve, poor fit]",
COc1ccc(CN2C(=O)c3ccccc3C(/C=N/OCc3ccc(Cl)cc3)C2=O)cc1 (stereo unspecified),"inconclusive: 18.4 µM [activator, single point]",
CCC(CO)Oc1cc(NCc2cccc(C(F)(F)F)c2)c2ncn(C(C)C)c2c1 (stereo unspecified),,inactive: 10.1%
Cc1ccc(-c2nn(-c3ccccc3)cc2/C=N/n2c(-c3cccs3)n[nH]c2=S)cc1,"inconclusive: 6.51 µM [activator, single point]",
COc1ccc(Nc2cc(C)nc3nc(C)nn23)c(OC)c1,,inactive: 2.36%
CCN(C[C@H]1N[C@@](Cc2ccccc2)(C(=O)OC)[C@H]2C(=O)N(Cc3ccccc3)C(=O)[C@@H]12)C(=O)c1ccccc1,,inactive: 9.89%
Cc1ccc(-c2n[nH]c(=S)n2/N=C/c2c(C)nn(-c3ccccc3)c2C)cc1,"inconclusive: 32.6 µM [activator, partial curve, poor fit]",
Clc1cccc(-c2ccc(-c3nc4ccccn4c3NCc3ccccc3)cc2)c1,"inconclusive: 29.1 µM [activator, single point]",
COc1ccc(/C=C(\NC(=O)c2ccco2)C(=O)Nc2ccc(C(C)=O)cc2)cc1,"inconclusive: 29.1 µM [activator, single point]",
COc1ccc(/C=C(\NC(=O)c2ccccc2)C(=O)NCc2ccco2)cc1OC,"inconclusive: 11.6 µM [activator, single point]",
COCCCNC(=O)/C(C#N)=C/c1cc(C)[nH]c1C,"inconclusive: 29.1 µM [activator, single point]",
Cc1ccc2nc(N3CCC(C(=O)O)CC3)nc(-c3ccccc3)c2c1,,inactive: 0.135%
Cc1ccc(C(=O)NC2CCN(S(=O)(=O)c3ccccc3F)CC2)cc1,"inconclusive: 23.1 µM [activator, single point]",
Cc1cc(-c2ccccc2)nc(N/N=C/c2ccc(O)cc2O)n1,"inconclusive: 18.4 µM [activator, partial curve, poor fit]",
O=C1C=CC(=O)N1c1ccc(Nc2ccccc2)cc1,"inconclusive: 29.1 µM [activator, single point]",
O=C(NCC(=O)N1CCN(c2ccccc2O)CC1)c1ccco1,,inactive: 8.29%
CCOc1ccccc1/C=N/n1nnnc1N,"inconclusive: 29.1 µM [activator, single point]",
O=C(N/N=C/C(Br)=C/c1ccccc1)c1cccs1,"inconclusive: 29.1 µM [activator, single point]",

SMILES,Potency,re-replication activation
COC(=O)CC1COc2ccccc2N1S(=O)(=O)c1ccc(Br)cc1 (stereo unspecified),active: 10.3 µM,
COc1ccc(S(=O)(=O)N2c3cc(C)ccc3OCC2C(C)(C)C)cc1 (stereo unspecified),active: 5.8 µM,
Cc1cc(NCCCCO)n2c(nc3ccccc32)c1C#N,"inconclusive: 6.51 µM [activator, single point]",
C=CCOc1c(Br)cc(/C=N/NC(=O)Cc2ccc(C(F)(F)F)cc2[N+](=O)[O-])cc1OC,"inconclusive: 18.4 µM [activator, partial curve, poor fit]",
CCCOc1ccc(C(=O)Nc2cc(S(=O)(=O)N3CCOCC3)ccc2N2CCN(CC)CC2)cc1OC,,inactive: -4.52%
COc1cccc(NC(=O)Nc2nc(SC)ns2)c1,"inconclusive: 20.6 µM [activator, partial curve, poor fit]",
Nc1ccccc1C(=O)NNc1ncc(C(F)(F)F)cc1Cl,active: 5.8 µM,
CCOC1(OCC)C(c2ccc(Cl)cc2)C(C#N)(C#N)C1(OCC)OCC (stereo unspecified),"inconclusive: 29.1 µM [activator, single point]",
COc1ccc(S(=O)(=O)N2CCC(C(=O)NCc3cccnc3)CC2)cc1OC,,inactive: -8.53%
COc1ccc2c3n([n+]([O-])c2c1)CCN=C3c1ccc(Cl)cc1,,inactive: -5.9% [at 9.22 µM]
Cc1cc(C)n(-c2nc3ccccc3c(=O)n2OCC(=O)OCc2ccccc2)n1,"inconclusive: 29.1 µM [activator, single point]",
O=C(CC1(O)C(=O)Nc2cc(Cl)cc(Cl)c21)c1ccncc1 (stereo unspecified),"inconclusive: 18.4 µM [activator, single point]",
Cc1ccc2[nH]c(C(F)(F)F)cc(=O)c2c1,"inconclusive: 23.1 µM [activator, single point]",
O=C1NC(=S)NC1=Cc1ccc(Cl)cc1Cl,"inconclusive: 29.1 µM [activator, single point]",
CC(C)C[C@@H](CNCC(=O)[C@H](Cc1ccccc1)NC(=O)c1[nH]cnc1C(=O)N[C@H](CN)CC(C)C)NC(=O)c1nc[nH]c1C(=O)N[C@@H](CC(=O)O)C(=O)O,,inactive: 8.58%
COc1ccccc1C(CNC(=O)CSc1ccc2ccccc2c1)N(C)C (stereo unspecified),"inconclusive: 18.4 µM [activator, single point]",
COc1ccc(Cn2cc(CN3CCS(=O)(=O)N(Cc4ccc(-c5cccc(Cl)c5)cc4)C(C)C3=O)nn2)cc1 (stereo unspecified),,inactive: 4.08%
CCOc1ccc2nc(NCCCNS(=O)(=O)c3ccc(F)cc3)c(C#N)cc2c1,"inconclusive: 23.1 µM [activator, single point]",
O=Nc1c(O)n(Cc2ccccc2)c2ccccc12,,inactive: -4.26%
CCCCOc1ccccc1NC(=O)Cn1c(-c2nonc2N)nc2ccccc21,"inconclusive: 3.26 µM [activator, full curve, poor fit]",
COc1ccc2[nH]c3c(c2c1)CCN1C(=O)C(CC(=O)NC(C)(C)C)C[C@H](C(=O)N2CCCCC2)[C@@]31C (stereo partly specified),,inactive: 5.49%
COc1ccccc1Nc1nc2c(C)cccc2cc1C#N,"inconclusive: 16.4 µM [activator, partial curve, poor fit]",
CCCCNC(=O)CCC(=O)N1CCN(C(c2ccccc2)c2ccccc2)CC1,"inconclusive: 0.013 µM [activator, full curve, poor fit]",

# An excerpt of these results, bar-delimited.
SMILES | Potency | re-replication activation
O=Nc1c(O)n(Cc2ccccc2)c2ccccc12 |  | inactive: -4.26%
CCCCOc1ccccc1NC(=O)Cn1c(-c2nonc2N)nc2ccccc21 | inconclusive: 3.26 µM [activator, full curve, poor fit] | 
COc1ccc2[nH]c3c(c2c1)CCN1C(=O)C(CC(=O)NC(C)(C)C)C[C@H](C(=O)N2CCCCC2)[C@@]31C (stereo partly specified) |  | inactive: 5.49%
